Experimental findings from the supplement of paper PMC12819154, “High-throughput peptide-centric local stability assay extends protein–ligand identification to membrane proteins, tissues and bacteria” (Nature Structural & Molecular Biology, 2025) are described below.

Protein sequences, listed by entry. Tags and fused reporters are not part of them. Lines headed by an entry give the natural chain unless they say otherwise; changes in a name come on top.
UniProt Q9DBG1: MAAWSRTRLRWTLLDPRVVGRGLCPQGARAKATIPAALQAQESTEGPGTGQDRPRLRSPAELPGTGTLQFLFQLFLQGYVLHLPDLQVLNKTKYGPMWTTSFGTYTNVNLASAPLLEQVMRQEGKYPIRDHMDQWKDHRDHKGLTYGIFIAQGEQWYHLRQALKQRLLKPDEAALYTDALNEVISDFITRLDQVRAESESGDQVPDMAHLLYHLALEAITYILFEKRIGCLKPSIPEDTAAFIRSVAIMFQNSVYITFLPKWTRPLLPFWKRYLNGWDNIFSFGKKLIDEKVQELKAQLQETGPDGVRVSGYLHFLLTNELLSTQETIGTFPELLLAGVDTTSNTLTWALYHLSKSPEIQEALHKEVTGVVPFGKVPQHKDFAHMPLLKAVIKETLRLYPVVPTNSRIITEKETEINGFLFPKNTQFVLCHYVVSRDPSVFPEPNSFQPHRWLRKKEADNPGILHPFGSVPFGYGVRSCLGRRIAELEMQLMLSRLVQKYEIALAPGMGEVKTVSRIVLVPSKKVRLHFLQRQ
UniProt Q9DBR4: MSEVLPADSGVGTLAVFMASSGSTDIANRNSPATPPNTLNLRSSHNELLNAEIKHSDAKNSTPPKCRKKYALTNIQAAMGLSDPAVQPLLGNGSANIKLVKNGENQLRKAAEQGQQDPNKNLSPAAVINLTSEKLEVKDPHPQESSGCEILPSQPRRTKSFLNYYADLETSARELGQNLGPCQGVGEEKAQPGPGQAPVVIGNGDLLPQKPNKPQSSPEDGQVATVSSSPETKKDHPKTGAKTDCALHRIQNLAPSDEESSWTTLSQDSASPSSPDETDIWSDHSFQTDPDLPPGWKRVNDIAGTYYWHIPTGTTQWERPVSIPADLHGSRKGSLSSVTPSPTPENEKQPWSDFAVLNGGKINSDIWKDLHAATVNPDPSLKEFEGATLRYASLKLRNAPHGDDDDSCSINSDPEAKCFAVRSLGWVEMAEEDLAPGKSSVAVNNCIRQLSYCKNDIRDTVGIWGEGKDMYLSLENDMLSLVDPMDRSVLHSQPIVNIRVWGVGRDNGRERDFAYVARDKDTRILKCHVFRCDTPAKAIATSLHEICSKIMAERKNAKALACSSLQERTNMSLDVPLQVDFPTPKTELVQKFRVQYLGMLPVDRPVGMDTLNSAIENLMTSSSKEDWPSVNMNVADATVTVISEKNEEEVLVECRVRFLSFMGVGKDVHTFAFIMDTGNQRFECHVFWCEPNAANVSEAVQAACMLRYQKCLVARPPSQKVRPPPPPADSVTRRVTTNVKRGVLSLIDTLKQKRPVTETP
UniProt Q9DCT8: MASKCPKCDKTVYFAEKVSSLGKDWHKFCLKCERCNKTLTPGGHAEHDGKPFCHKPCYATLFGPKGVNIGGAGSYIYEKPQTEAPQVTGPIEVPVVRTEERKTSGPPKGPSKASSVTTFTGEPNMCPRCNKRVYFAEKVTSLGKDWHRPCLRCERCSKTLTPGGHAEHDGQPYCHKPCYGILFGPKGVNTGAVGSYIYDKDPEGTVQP
UniProt Q9DBZ1: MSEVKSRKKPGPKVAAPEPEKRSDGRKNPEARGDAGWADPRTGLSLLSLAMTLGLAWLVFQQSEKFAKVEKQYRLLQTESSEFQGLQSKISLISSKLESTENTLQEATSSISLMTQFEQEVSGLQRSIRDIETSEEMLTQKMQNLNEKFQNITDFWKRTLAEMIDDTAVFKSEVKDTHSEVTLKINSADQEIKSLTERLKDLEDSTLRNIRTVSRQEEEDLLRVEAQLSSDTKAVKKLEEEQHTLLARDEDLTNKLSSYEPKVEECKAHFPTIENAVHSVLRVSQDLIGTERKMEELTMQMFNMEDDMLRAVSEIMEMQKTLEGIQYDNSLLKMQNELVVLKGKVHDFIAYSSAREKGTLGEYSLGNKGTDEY
UniProt Q9DCV4: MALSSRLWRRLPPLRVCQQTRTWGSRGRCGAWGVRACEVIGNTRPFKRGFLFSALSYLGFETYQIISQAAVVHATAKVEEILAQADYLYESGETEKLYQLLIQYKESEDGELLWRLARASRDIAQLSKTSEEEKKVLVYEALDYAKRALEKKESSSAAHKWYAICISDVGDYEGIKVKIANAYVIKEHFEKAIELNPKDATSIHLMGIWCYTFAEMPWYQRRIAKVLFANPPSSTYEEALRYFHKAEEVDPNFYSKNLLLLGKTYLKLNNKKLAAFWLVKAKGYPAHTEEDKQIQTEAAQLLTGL
UniProt Q9DBA9: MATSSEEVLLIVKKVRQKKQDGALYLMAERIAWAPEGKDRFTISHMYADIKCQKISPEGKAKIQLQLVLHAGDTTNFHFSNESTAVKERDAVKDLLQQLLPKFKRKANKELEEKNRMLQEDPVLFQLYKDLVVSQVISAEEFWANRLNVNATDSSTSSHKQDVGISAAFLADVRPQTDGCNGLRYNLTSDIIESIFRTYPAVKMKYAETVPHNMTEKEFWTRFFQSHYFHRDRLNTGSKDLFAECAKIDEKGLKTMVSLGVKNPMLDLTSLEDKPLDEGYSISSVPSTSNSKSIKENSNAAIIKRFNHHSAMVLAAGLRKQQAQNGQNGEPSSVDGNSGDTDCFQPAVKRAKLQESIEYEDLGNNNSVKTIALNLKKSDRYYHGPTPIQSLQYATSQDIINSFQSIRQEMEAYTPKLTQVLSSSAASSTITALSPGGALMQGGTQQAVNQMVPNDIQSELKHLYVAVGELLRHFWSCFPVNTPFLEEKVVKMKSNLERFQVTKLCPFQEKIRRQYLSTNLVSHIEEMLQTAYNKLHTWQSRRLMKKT
UniProt Q9EQ32: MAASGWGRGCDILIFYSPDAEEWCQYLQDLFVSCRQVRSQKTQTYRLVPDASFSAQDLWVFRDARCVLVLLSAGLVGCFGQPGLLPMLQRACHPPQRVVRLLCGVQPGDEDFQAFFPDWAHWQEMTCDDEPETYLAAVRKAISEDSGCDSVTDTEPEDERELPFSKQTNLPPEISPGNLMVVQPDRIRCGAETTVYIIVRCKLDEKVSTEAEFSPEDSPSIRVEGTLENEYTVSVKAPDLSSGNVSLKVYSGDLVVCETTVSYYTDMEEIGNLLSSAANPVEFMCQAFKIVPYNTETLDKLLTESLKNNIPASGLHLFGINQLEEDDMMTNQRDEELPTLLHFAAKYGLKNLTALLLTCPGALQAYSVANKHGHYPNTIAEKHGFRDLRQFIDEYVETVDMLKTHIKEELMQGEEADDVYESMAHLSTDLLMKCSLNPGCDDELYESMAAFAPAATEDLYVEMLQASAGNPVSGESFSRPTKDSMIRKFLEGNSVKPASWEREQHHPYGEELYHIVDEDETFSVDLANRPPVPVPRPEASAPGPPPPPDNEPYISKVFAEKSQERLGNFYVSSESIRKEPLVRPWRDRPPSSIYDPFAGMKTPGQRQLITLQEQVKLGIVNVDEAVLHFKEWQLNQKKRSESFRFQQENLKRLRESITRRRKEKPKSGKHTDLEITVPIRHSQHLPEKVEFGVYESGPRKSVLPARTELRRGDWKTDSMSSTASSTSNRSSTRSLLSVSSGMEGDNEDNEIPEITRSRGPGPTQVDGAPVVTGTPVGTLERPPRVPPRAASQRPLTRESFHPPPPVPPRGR
UniProt Q9DCL4: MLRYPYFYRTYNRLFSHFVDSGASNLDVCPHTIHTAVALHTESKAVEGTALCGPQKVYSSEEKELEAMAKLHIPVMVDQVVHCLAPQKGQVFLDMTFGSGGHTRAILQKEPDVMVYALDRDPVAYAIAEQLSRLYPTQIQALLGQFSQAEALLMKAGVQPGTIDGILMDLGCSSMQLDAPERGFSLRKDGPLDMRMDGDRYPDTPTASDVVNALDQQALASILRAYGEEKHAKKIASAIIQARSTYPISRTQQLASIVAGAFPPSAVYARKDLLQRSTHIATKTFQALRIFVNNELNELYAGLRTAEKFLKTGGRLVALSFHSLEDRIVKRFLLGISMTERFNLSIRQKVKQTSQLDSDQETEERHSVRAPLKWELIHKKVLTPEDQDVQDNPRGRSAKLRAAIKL
UniProt Q9DBR7: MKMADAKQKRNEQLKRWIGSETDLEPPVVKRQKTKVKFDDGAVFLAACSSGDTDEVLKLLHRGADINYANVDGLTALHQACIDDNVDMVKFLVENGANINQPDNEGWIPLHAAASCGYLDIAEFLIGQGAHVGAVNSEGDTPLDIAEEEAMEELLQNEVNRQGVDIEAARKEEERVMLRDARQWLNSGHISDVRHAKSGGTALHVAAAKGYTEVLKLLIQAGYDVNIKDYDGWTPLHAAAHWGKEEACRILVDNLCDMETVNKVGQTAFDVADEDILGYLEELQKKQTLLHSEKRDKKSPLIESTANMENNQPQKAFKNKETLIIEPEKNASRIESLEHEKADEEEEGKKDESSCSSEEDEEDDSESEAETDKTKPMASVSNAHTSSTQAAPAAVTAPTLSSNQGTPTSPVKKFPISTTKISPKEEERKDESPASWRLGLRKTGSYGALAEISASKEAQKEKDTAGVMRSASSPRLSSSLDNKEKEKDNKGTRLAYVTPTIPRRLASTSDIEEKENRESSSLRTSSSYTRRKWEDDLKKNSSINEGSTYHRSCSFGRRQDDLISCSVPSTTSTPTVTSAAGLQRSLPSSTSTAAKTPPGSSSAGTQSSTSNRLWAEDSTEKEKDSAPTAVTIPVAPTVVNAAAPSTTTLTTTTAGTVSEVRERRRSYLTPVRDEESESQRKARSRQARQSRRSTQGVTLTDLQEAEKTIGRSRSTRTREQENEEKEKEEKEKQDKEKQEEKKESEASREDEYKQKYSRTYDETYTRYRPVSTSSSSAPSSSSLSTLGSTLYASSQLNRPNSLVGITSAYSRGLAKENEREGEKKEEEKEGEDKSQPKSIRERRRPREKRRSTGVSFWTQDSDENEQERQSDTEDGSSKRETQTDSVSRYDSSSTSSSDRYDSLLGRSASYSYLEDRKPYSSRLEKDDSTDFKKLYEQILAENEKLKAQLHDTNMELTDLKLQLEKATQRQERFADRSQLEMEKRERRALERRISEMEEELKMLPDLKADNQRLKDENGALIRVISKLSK
UniProt Q9DCD0: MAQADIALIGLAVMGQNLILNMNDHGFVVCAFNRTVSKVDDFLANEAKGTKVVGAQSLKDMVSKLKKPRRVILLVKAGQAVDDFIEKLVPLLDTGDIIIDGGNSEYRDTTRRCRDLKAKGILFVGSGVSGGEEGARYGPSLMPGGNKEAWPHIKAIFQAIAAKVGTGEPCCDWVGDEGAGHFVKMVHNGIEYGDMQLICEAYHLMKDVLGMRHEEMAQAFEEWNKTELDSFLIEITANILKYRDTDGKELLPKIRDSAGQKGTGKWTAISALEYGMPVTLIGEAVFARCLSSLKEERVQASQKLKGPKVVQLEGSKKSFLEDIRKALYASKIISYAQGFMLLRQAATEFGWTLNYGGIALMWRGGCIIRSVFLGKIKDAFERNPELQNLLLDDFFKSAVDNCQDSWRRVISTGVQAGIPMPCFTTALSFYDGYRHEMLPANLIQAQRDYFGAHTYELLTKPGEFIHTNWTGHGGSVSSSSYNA
UniProt Q9DD18: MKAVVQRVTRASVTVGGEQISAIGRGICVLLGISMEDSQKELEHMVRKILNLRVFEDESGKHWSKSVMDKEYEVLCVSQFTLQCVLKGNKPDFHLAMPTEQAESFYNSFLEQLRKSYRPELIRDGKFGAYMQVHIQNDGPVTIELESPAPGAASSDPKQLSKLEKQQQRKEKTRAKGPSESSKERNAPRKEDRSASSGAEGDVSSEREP
UniProt Q9DAV9: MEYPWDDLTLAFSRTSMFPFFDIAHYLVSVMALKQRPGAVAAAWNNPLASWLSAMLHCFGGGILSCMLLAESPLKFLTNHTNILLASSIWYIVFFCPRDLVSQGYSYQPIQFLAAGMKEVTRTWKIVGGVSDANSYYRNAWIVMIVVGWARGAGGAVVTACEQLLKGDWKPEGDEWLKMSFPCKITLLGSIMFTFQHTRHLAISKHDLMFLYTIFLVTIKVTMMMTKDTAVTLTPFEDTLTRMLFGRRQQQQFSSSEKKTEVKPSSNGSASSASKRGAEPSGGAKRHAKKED
UniProt Q9EQ00: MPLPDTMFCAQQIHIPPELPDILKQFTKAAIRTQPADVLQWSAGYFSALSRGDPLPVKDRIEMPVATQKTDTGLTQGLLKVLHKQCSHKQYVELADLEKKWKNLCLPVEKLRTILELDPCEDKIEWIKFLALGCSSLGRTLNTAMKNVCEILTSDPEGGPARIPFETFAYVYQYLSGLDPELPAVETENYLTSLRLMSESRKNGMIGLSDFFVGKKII
UniProt Q9DCH4, whole entry: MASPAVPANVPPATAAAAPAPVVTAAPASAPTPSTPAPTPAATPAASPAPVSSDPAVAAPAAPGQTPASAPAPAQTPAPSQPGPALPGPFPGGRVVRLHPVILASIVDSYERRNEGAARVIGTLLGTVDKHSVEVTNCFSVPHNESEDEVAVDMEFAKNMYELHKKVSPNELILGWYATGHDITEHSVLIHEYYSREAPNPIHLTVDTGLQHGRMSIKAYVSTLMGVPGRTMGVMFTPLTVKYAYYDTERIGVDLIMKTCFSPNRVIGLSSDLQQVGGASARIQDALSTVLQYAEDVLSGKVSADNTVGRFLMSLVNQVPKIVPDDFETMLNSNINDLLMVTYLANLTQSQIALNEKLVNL

The list shows a part of the results. Most entries show no effect beyond the scatter of the controls.

Compound in the experiment: CN[C@@H]1C[C@H]2O[C@@](C)([C@@H]1OC)n1c3ccccc3c3c4c(c5c6ccccc6n2c5c31)C(=O)NC4 [staurosporine]
The experiment can be described thus: log2 fold change of tryptic peptide abundance, ligand vs vehicle (limited proteolysis) (log2 ratio); higher = more trypsin-susceptible (destabilized). Conditions: ligand concentration: 20 uM; sample: mouse liver crude lysate; replicate design: treated separately.
“UniProt Q9DBG1 (peptide sequence: EVTGVVPFGKVPQHK, peptide start residue: 366)”: the log2 fold change is -0.185.

For “UniProt Q9DBR4 (peptide sequence: DLHAATVNPDPSLKEFEGATLR, peptide start residue: 369)”, the log2 fold change turned out to be 0.235. In the case of “UniProt Q9DBJ6 (peptide sequence: LSPNTMVTPHKK, peptide start residue: 63)” it was 0.284; in that of “UniProt Q9DAZ9 (peptide sequence: VCKQCHTILTR, peptide start residue: 49)”, 0.622; in that of “UniProt Q9ER88 (peptide sequence: ELLQSTHNK, peptide start residue: 160)”, -0.287. To “UniProt Q9EPC1 (peptide sequence: WNVDSVHAK, peptide start residue: 177)” belongs 0.807; to “UniProt Q9DBF1 (peptide sequence: QGGTVVYGGK, peptide start residue: 391)”, -0.201. In the case of “UniProt Q9ER80 (peptide sequence: KIALTSNASLGEK, peptide start residue: 133)” it was 0.204; in that of “UniProt Q9DCT8 (peptide sequence: RVYFAEK, peptide start residue: 132)”, -0.368. As for “UniProt Q9DBZ1 (peptide sequence: VAAPEPEKR, peptide start residue: 14)”, the log2 fold change was -0.186.

For the target “UniProt Q9DBZ5 (peptide sequence: ALTNLPHTDFTLCK, peptide start residue: 73)”, the log2 fold change is -0.713.

“UniProt Q9DC37 (peptide sequence: EADSAVHGAPR, peptide start residue: 17)”: the log2 fold change is -0.0361.

For “UniProt Q9DCV4 (peptide sequence: IANAYVIKEHFEK, peptide start residue: 179)”, the log2 fold change turned out to be 0.121.

For the target “UniProt Q9DCM2 (peptide sequence: YGAFGLPTTVAHVDGK, peptide start residue: 178)”, the log2 fold change was -0.368.

For “UniProt Q9DCL2 (peptide sequence: VLWLSGFSEHGAAWQPR, peptide start residue: 15)”, the log2 fold change is -0.0408. In the case of “UniProt Q9DBA9 (peptide sequence: FNHHSAMVLAAGLR, peptide start residue: 306)” it was 0.813. To “UniProt Q9EQ32 (peptide sequence: HGHYPNTIAEK, peptide start residue: 372)” belongs 0.278; to “UniProt Q9DCL4 (peptide sequence: LHIPVMVDQVVHCLAPQK, peptide start residue: 71)”, -0.628. As to “UniProt Q9ERB0 (peptide sequence: GVLEHTEK, peptide start residue: 86)”, the log2 fold change is -0.189.

For “UniProt Q9ERN0 (peptide sequence: QQEELDR, peptide start residue: 88)”, the log2 fold change is -0.0723.

Regarding “UniProt Q9DBR7 (peptide sequence: LEKDDSTDFKK, peptide start residue: 923)”, the log2 fold change is -0.179. To “UniProt Q9DCM4 (peptide sequence: LQTFPLVR, peptide start residue: 16)” belongs 0.024. To “UniProt Q9DCD0 (peptide sequence: YGPSLMPGGNK, peptide start residue: 137)” belongs 0.185; to “UniProt Q9EQN3 (peptide sequence: SFTGGLGQLAGPGK, peptide start residue: 165)”, 0.297. For the target “UniProt Q9DD18 (peptide sequence: AKGPSESSK, peptide start residue: 175)”, the log2 fold change was -0.201.

Regarding “UniProt Q9DCM7 (peptide sequence: VKHEAMEMPPASGPGLASK, peptide start residue: 170)”, the log2 fold change was 0.488. To “UniProt Q9DBR1 (peptide sequence: KYPLPPPSGR, peptide start residue: 938)” belongs 0.458; to “UniProt Q9EPL8 (peptide sequence: QLQDIATLADQRR, peptide start residue: 991)”, -0.291; to “UniProt Q9DAV9 (peptide sequence: RQQQQFSSSEKK, peptide start residue: 248)”, 0.358. In the case of “UniProt Q9DBF7 (peptide sequence: ELLQMSLEKK, peptide start residue: 165)”, the log2 fold change amounted to 0.494. In the case of “UniProt Q9DB40 (peptide sequence: LQYHAGLASGLLNQQSLKR, peptide start residue: 117)” it was 0.0365. In the case of “UniProt Q9DBC0 (peptide sequence: GAGPTPFSR, peptide start residue: 178)” it was 0.21; in that of “UniProt Q9EQW7 (peptide sequence: ATEEIEDR, peptide start residue: 1301)”, 0.477; in that of “UniProt Q9DC71 (peptide sequence: QEQLMNK, peptide start residue: 109)”, -0.361. In the case of “UniProt Q9EQM6 (peptide sequence: FDFEQVTVKK, peptide start residue: 448)” it was 0.825. Turning to “UniProt Q9EQ00 (peptide sequence: TDTGLTQGLLK, peptide start residue: 70)”, the log2 fold change was -0.674. In the case of “UniProt Q9DCH4 (peptide sequence: TCFSPNR, peptide start residue: 259)” it was 0.156; in that of “UniProt Q9ER72 (peptide sequence: ELSKGQAK, peptide start residue: 798)”, -0.723; in that of “UniProt Q9DBR3 (peptide sequence: SLSTEQLFR, peptide start residue: 510)”, 0.238. In the case of “UniProt Q9DB85 (peptide sequence: QAPSISDSEGK, peptide start residue: 100)” it was -0.145.
